Measurements published in publication PMC8620715, “Biological Activity of Triazolopyrimidine Copper(II) Complexes Modulated by an Auxiliary N-N-Chelating Heterocycle Ligands” (Molecules, 2021).

Test: ROS scavenging ability by EPR spectroscopy (KO2, H2O2)
Conditions: 5 mM complex in DMSO; for interaction with hydroxyl radicals (EPR signal on adding H2O2): H2O2 as OH· source; for interaction with superoxide (EPR signal on adding KO2): KO2 10 and 50 μM

Structure (SMILES)	interaction with hydroxyl radicals (EPR signal on adding H2O2)	interaction with superoxide (EPR signal on adding KO2)
Cc1cc(C)n2ncnc2n1.Cc1cc(C)n2ncnc2n1.Cc1cc(C)n2ncnc2n1.O.[Cu+2].[O-][Cl+3]([O-])([O-])[O-].[O-][Cl+3]([O-])([O-])[O-].c1ccc(-c2ccccn2)nc1 [Complex (1), [Cu(bpy)(dmtp)2(OH2)](ClO4)2·dmtp]	trapped rather than scavenged	trapped rather than scavenged
Cc1cc(C)n2ncnc2n1.Cc1cc(C)n2ncnc2n1.Cc1cc(C)n2ncnc2n1.O.[Cu+2].[O-][Cl+3]([O-])([O-])[O-].[O-][Cl+3]([O-])([O-])[O-].c1cnc2c(c1)ccc1cccnc12 [Complex (2), [Cu(phen)(dmtp)2(OH2)](ClO4)2·dmtp]	no reaction towards the hydroxyl radicals	some scavenging ability
